According to PubChem BioAssay AID662 (National Center for Advancing Translational Sciences (NCATS), 2007):
Some of the results follow. Shown are side measurements of this screen, not its main read-out; they come without a call. Most of these compounds were active or inconclusive in the main read-out, so they are no random draw. Potencies come from curve fits of mixed quality, noted in brackets.

Assay: Cell signaling CRE-BLA (Fsk stim)
Conditions: CHO CRE-bla reporter (cAMP response element driving beta-lactamase), forskolin EC10, beta-lactamase ratio; measured here: 460 nm blue channel
Summary of the method: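 Modulation of forskolin-driven signalling is measured in CHO cells carrying a CRE-controlled beta-lactamase reporter. Cells are stimulated with EC10 NKH 477 in the presence of titrated compound for 3 h at 37 °C, then loaded with CCF4 for 2 h at room temperature.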

Row | SMILES | AC50
1 | CN(C)C(=O)CCc1nc(-c2ccc(C(C)(C)C)cc2)no1 | 12.6 µM [falling, partial curve]
2 | CCC(C)(C)n1nnnc1CN(Cc1cccs1)Cc1cc2cc(OC)ccc2[nH]c1=O | 12.6 µM [rising, partial curve]
3 | CCCc1cc(=O)[nH]c(SCC)n1 | 6.31 µM [rising, partial curve]
4 | Cc1nn(-c2ccccn2)c2nc(-c3cccs3)cc(C(=O)N3CCOCC3)c12 | 7.94 µM [rising, partial curve]
5 | O=C(c1ccco1)N1CCN(c2nc(C3CC3)nc3sc4c(c23)CCCC4)CC1 | 25.1 µM [falling, single point]
6 | CN(Cc1ccco1)c1ncnc2ccc(-c3ccccc3C#N)cc12 | 3.16 µM [rising, partial curve]
7 | Cn1c(C(=O)NCC2CCCO2)cc2c(=O)[nH]c3ccccc3c21 (stereo not given) | 15.8 µM [rising, partial curve]
8 | C=C(C)COc1ccc(-c2[nH]ncc2Oc2ccccc2OCC)c(O)c1 | 12.6 µM [falling, single point]
9 | CCOC(=O)c1c(C)[nH]c(C(C)=O)c1C | 12.6 µM [rising, partial curve]
10 | CCNc1ncc2nc(-c3ccccc3)c(=O)n(CCc3ccccc3)c2n1 | 2 µM [rising, full curve]
11 | Cc1ccc(-c2nnn(CC(=O)NCCc3ccc4c(c3)OCO4)n2)o1 | 5.01 µM [falling, single point]
12 | Cc1csc(NC(=O)CSc2nc(C)nc3c2c(=O)n(C)c(=O)n3C)n1 | 2.51 µM [rising, full curve]
13 | COCCNc1nc(-c2ccccc2CN(C)C)nc2ccccc12 | 12.6 µM [rising, partial curve]
14 | COc1ccc(C(=O)CSc2cc(C)nc3nc(C)nn23)cc1OC | 10 µM [rising, partial curve]
15 | COc1ccc(-c2onc(C)c2-c2ccc(C(=O)OC(C)C)o2)c(O)c1 | 3.16 µM [falling, partial curve]
16 | CCN1CCN(C(=O)c2nn(-c3ccc(OC)cc3)c(=O)c3c2c2ccccc2n3C)CC1 | 0.02 µM [falling, full curve]
17 | Oc1ccccc1-c1nc(NCC2CCCO2)c2ccccc2n1 (stereo not given) | 20 µM [falling, single point]
18 | CCOCCCNC(=O)C(NC(=O)C1CCC(=O)N1)c1ccc(C)cc1 (stereo not given) | 0.158 µM [falling, full curve, poor fit]
19 | CC1=C(C(=O)OCc2ccccc2)C(C2CCCCC2)NC(=O)N1CCCCCC(=O)O (stereo not given) | 7.94 µM [rising, partial curve]
20 | O=C(Nc1cc(C(F)(F)F)ccc1N1CCOCC1)C1Cc2ccccc2CN1C(=O)c1ccco1 (stereo not given) | 2.51 µM [falling, full curve]
21 | COc1cc2c(cc1OC)C(c1ccccc1)N(C(=O)c1ccco1)CC2 (stereo not given) | 6.31 µM [rising, partial curve]
22 | O=C(CCC1COc2ccccc2O1)Nc1ccc(Cl)cn1 (stereo not given) | 25.1 µM [falling, single point]

Row | SMILES | AC50
23 | COc1ccc(-n2nnc3c(=O)n(CC(=O)NCC4CCCO4)cnc32)cc1 (stereo not given) | 25.1 µM [falling, single point]
24 | COCCn1c(=O)c(-c2ccc(F)cc2)nc2cnc(OC)nc21 | 12.6 µM [rising, partial curve, poor fit]
25 | COc1ccc(C(=O)NC(=O)CSc2nnc(-c3ccco3)n2-c2ccccc2)cc1 | 6.31 µM [falling, partial curve]
26 | O=S(=O)(c1cccc2ccccc12)N1CCSC1 | 25.1 µM [falling, single point]
27 | CC(C)C[C@@H](CC(=O)N[C@@H](CCCN)CC(=O)N[C@@H]1CCNC[C@H]1C(=O)N[C@H](CC(=O)N[C@@H](CCC(=O)O)CC(=O)O)CC(C)C)NC(=O)[C@@H]1CCCC[C@H]1N | 10 µM [falling, full curve, poor fit]
28 | CCOC(=O)COc1ccc2c3c(c(=O)oc2c1C)CCC3 | 15.8 µM [rising, single point]
29 | COc1ccc(C2OC(=O)CC2C(=O)N2CCN(c3cc(Cl)ccc3C)CC2)cc1OC (stereo not given) | 10 µM [rising, partial curve]
30 | Cc1nn(-c2ccccc2)c2sc(C(=O)c3c(N)n(C)c(=O)n(C)c3=O)cc12 | 10 µM [rising, partial curve]
31 | COC(=O)C1=CN(CCCN2CCCC2=O)C=C(C(=O)OC)C1c1cccs1 | 15.8 µM [rising, single point]
32 | COCCN(CC(=O)Nc1ccc(F)cc1)S(=O)(=O)c1ccc(S(=O)(=O)N2CCCC2)cc1 | 31.6 µM [falling, partial curve, poor fit]
33 | CC(C)c1ccc2c(c1)c(SC(C)(C)C)c(CC(C)(C)C(=O)O)n2Cc1ccc(Cl)cc1 | 25.1 µM [falling, partial curve]
34 | CCOC(=O)C1CCCN(c2ncnc3c2[nH]c2cccc(OC)c23)C1 (stereo not given) | 12.6 µM [rising, single point]
35 | CC1CCCCN1C(=O)CSc1nc2ccsc2c(=O)n1Cc1ccccn1 (stereo not given) | 10 µM [rising, single point]
36 | COc1ccc(S(=O)(=O)Nc2cc(OC)c(NC(=O)c3ccco3)cc2OC)cc1 | 15.8 µM [rising, single point]
37 | Cc1nn(-c2ccccc2)c2[nH]c(=O)c(CNc3ccc4c(c3)OCCO4)cc12 | 5.01 µM [falling, single point]
38 | CN(C)c1ncc2nc(-c3ccccc3)c(=O)n(CCC#N)c2n1 | 2.51 µM [rising, full curve]
39 | COc1cc(NS(=O)(=O)c2ccc(NC(=O)C3CCCO3)cc2)nc(OC)n1 (stereo not given) | 0.00316 µM [falling, full curve, poor fit]
40 | Cc1ccccc1OCC(=O)Nc1ccccc1N1CCCCC1 | 2 µM [rising, full curve, poor fit]
41 | COc1ccc(OC)c(C2=NOC(C(=O)Nc3cccc(C(C)=O)c3)C2)c1 (stereo not given) | 25.1 µM [rising, single point]
42 | CN(Cc1ccco1)c1ncnc2ccc(-c3ccccc3C(F)(F)F)cc12 | 10 µM [rising, partial curve]
43 | Cc1nn(-c2nc3ccccc3s2)c(C)c1Oc1ccccc1O | 25.1 µM [falling, single point]
44 | Cc1cc(C)n2nc(NCc3cccc(Br)c3)nc2n1 | 10 µM [rising, partial curve]

An excerpt of the results above, for reference:
Row | SMILES | AC50
26 | O=S(=O)(c1cccc2ccccc12)N1CCSC1 | 25.1 µM [falling, single point]
27 | CC(C)C[C@@H](CC(=O)N[C@@H](CCCN)CC(=O)N[C@@H]1CCNC[C@H]1C(=O)N[C@H](CC(=O)N[C@@H](CCC(=O)O)CC(=O)O)CC(C)C)NC(=O)[C@@H]1CCCC[C@H]1N | 10 µM [falling, full curve, poor fit]
28 | CCOC(=O)COc1ccc2c3c(c(=O)oc2c1C)CCC3 | 15.8 µM [rising, single point]

(next part)

Row | SMILES | AC50
45 | Cc1sc2ncnc(-n3cnc4ccccc43)c2c1C | 3.98 µM [falling, partial curve]
46 | Cc1onc(-c2c(F)cccc2Cl)c1C(=O)Nc1cccc2nsnc12 | 25.1 µM [rising, single point]
47 | O=S1(=O)N=C(N2CCN(Cc3ccc4c(c3)OCO4)CC2)c2ccccc21 | 0.00316 µM [falling, full curve, poor fit]
48 | N#Cc1nc(COc2ccccc2)oc1NCCCn1ccnc1 | 6.31 µM [falling, partial curve, poor fit]
49 | COc1ccc(Cn2c3nc4ccccc4nc3c3c(=O)n(Cc4ccco4)cnc32)cc1 | 12.6 µM [rising, single point]
50 | CCCN(CCC)C(=O)C1CCN(c2cc(C)nc3c(-c4ccc(OC)c(OC)c4)c(C)nn23)CC1 | 12.6 µM [rising, single point]
51 | CC(C)Cc1nc2oc3c(NCc4cccnc4)ncnc3c2c2c1CCC2 | 5.01 µM [rising, partial curve]
52 | COc1cccc(Nc2ncc3nc(C)c(=O)n(C4CC4)c3n2)c1 | 2.51 µM [rising, full curve]
53 | COc1cc(OC)c(NC(=O)c2c(-c3ccccc3)noc2C)cc1Cl | 3.16 µM [rising, full curve]
54 | COc1ccccc1NC(=O)Cn1nnc(-c2ccccc2NC(=O)c2cccs2)n1 | 2.51 µM [rising, full curve, poor fit]
55 | Cc1nnc(SCC(=O)Nn2cnnc2)s1 | 25.1 µM [rising, single point]
56 | Cc1nc(C)c(C(=O)Nc2ccc(C)c(F)c2)o1 | 5.01 µM [falling, full curve]
57 | CCNc1ncc2nc(C)c(=O)n(-c3ccc(OC)cc3)c2n1 | 15.8 µM [rising, partial curve]
58 | O=C(Nc1ccccc1C(=O)N1CCCCCC1)c1cccc(S(=O)(=O)N2CCOCC2)c1 | 3.98 µM [falling, partial curve]
59 | Cn1c(=O)[nH]c(=O)c2c1nc(Br)n2CCCCSc1nc2ccccc2o1 | 10 µM [rising, partial curve]
60 | Clc1ccc(N2CCN(Cc3c[nH]c4ncccc34)CC2)cc1 | 12.6 µM [falling, partial curve, poor fit]
61 | CCCCn1ccnc1C(=O)c1cccc(S(=O)(=O)N2c3ccccc3CC2C)c1 (stereo not given) | 5.01 µM [rising, single point]
62 | Cc1cccc(N(C)C(=O)c2cc3cc4ccc(C)cc4nc3o2)c1 | 0.1 µM [rising, full curve]
63 | Cc1ccc(C)c(Cn2c(=O)c3c(nc4n3CCN4Cc3ccco3)n(C)c2=O)c1 | 3.16 µM [rising, partial curve]
64 | CC(=O)N(Cc1cccnc1)Cc1cc2ccccc2[nH]c1=O | 25.1 µM [rising, single point]
65 | Cc1ccc(S(=O)(=O)N2CCC(C(=O)N[C@@H](Cc3ccccc3)C(=O)O)CC2)cc1 | 0.0794 µM [falling, full curve]
